Results are given in words; binding and its absence hold for the method and conditions named. Binding seen in cells or lysates may run through a third protein. Tags and fused reporters may be left off the sequences shown.
B1: caspase-4 (endogenous) (protein, UniProt P49662 1-377)
chain: MAEGNHRKKPLKVLESLGKDFLTGVLDNLVEQNVLNWKEEEKKKYYDAKTEDKVRVMADSMQEKQRMAGQMLLQTFFNIDQISPNKKAHPNMEAGPPESGESTDALKLCPHEEFLRLCKERAEEIYPIKERNNRTRLALIICNTEFDHLPPRNGADFDITGMKELLEGLDYSVDVEENLTARDMESALRAFATRPEHKSSDSTFLVLMSHGILEGICGTVHDEKKPDVLLYDTIFQIFNNRNCLSLKDKPKVIIVQACRGANRGELWVRDSPASLEVASSQSSENLEEDAVYKTHVEKDFIAFCSSTPHNVSWRDSTMGSIFITQLITCFQKYSWCCHLEEVFRKVQQSFETPRAKAQMPTIERLSMTRYFYLFPGN
B2: caspase-5 (endogenous) (protein, UniProt P51878 1-434)
chain: MAEDSGKKKRRKNFEAMFKGILQSGLDNFVINHMLKNNVAGQTSIQTLVPNTDQKSTSVKKDNHKKKTVKMLEYLGKDVLHGVFNYLAKHDVLTLKEEEKKKYYDTKIEDKALILVDSLRKNRVAHQMFTQTLLNMDQKITSVKPLLQIEAGPPESAESTNILKLCPREEFLRLCKKNHDEIYPIKKREDRRRLALIICNTKFDHLPARNGAHYDIVGMKRLLQGLGYTVVDEKNLTARDMESVLRAFAARPEHKSSDSTFLVLMSHGILEGICGTAHKKKKPDVLLYDTIFQIFNNRNCLSLKDKPKVIIVQACRGEKHGELWVRDSPASLALISSQSSENLEADSVCKIHEEKDFIAFCSSTPHNVSWRDRTRGSIFITELITCFQKYSCCCHLMEIFRKVQKSFEVPQAKAQMPTIERATLTRDFYLFPGN
B3: Flag-TRAF7 (protein, UniProt Q6Q0C0 1-670)
chain: MSSGKSARYNRFSGGPSNLPTPDVTTGTRMETTFGPAFSAVTTITKADGTSTYKQHCRTPSSSSTLAYSPRDEEDSMPPISTPRRSDSAISVRSLHSESSMSLRSTFSLPEEEEEPEPLVFAEQPSVKLCCQLCCSVFKDPVITTCGHTFCRRCALKSEKCPVDNVKLTVVVNNIAVAEQIGELFIHCRHGCRVAGSGKPPIFEVDPRGCPFTIKLSARKDHEGSCDYRPVRCPNNPSCPPLLRMNLEAHLKECEHIKCPHSKYGCTFIGNQDTYETHLETCRFEGLKEFLQQTDDRFHEMHVALAQKDQEIAFLRSMLGKLSEKIDQLEKSLELKFDVLDENQSKLSEDLMEFRRDASMLNDELSHINARLNMGILGSYDPQQIFKCKGTFVGHQGPVWCLCVYSMGDLLFSGSSDKTIKVWDTCTTYKCQKTLEGHDGIVLALCIQGCKLYSGSADCTIIVWDIQNLQKVNTIRAHDNPVCTLVSSHNVLFSGSLKAIKVWDIVGTELKLKKELTGLNHWVRALVAAQSYLYSGSYQTIKIWDIRTLDCIHVLQTSGGSVYSIAVTNHHIVCGTYENLIHVWDIESKEQVRTLTGHVGTVYALAVISTPDQTKVFSASYDRSLRVWSMDNMICTQTLLRHQGSVTALAVSRGRLFSGAVDSTVKVWTC
B4: TRAF4 with C-terminal Flag tag (protein, UniProt Q9BUZ4 1-470)
chain: MPGFDYKFLEKPKRRLLCPLCGKPMREPVQVSTCGHRFCDTCLQEFLSEGVFKCPEDQLPLDYAKIYPDPELEVQVLGLPIRCIHSEEGCRWSGPLRHLQGHLNTCSFNVIPCPNRCPMKLSRRDLPAHLQHDCPKRRLKCEFCGCDFSGEAYESHEGMCPQESVYCENKCGARMMRRLLAQHATSECPKRTQPCTYCTKEFVFDTIQSHQYQCPRLPVACPNQCGVGTVAREDLPGHLKDSCNTALVLCPFKDSGCKHRCPKLAMARHVEESVKPHLAMMCALVSRQRQELQELRRELEELSVGSDGVLIWKIGSYGRRLQEAKAKPNLECFSPAFYTHKYGYKLQVSAFLNGNGSGEGTHLSLYIRVLPGAFDNLLEWPFARRVTFSLLDQSDPGLAKPQHVTETFHPDPNWKNFQKPGTWRGSLDESSLGFGYPKFISHQDIRKRNYVRDDAVFIRAAVELPRKILS

By UniProt entry, the sequences of proteins in these tests, tags left out.
UniProt P29466: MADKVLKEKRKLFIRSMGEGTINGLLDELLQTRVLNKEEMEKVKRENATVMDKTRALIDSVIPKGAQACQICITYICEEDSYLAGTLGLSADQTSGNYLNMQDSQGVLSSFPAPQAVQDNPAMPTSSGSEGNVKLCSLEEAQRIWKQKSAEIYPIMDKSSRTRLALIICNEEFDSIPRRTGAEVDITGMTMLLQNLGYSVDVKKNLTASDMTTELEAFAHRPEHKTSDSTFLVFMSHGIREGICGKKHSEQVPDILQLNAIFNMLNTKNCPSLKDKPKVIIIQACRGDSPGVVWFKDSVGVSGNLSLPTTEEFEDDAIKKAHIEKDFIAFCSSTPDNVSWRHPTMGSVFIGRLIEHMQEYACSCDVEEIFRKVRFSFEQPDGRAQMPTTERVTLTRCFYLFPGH
UniProt O00463: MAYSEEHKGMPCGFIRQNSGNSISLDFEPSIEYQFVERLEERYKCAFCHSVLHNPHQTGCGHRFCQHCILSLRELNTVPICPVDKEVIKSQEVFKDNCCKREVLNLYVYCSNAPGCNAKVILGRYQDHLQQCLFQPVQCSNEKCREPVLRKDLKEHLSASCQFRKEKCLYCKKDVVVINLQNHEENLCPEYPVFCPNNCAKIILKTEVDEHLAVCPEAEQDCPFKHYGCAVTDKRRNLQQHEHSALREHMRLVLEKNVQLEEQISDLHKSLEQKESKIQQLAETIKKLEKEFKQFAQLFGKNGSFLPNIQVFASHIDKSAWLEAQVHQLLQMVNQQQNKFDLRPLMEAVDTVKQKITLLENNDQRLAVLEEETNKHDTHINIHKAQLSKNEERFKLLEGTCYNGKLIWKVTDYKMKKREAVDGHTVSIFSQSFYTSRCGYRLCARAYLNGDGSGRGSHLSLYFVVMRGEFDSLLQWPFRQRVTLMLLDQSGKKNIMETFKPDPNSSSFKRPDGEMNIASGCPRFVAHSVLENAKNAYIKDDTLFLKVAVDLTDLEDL

Each molecule was assayed against T1, Myc-TRAF2 (UniProt Q12933) (assay: co-IP; Myc-TRAF2 expressed in HeLa for 48 h; Myc-Trap IP, immunoblot for endogenous caspases).
T1 sequence: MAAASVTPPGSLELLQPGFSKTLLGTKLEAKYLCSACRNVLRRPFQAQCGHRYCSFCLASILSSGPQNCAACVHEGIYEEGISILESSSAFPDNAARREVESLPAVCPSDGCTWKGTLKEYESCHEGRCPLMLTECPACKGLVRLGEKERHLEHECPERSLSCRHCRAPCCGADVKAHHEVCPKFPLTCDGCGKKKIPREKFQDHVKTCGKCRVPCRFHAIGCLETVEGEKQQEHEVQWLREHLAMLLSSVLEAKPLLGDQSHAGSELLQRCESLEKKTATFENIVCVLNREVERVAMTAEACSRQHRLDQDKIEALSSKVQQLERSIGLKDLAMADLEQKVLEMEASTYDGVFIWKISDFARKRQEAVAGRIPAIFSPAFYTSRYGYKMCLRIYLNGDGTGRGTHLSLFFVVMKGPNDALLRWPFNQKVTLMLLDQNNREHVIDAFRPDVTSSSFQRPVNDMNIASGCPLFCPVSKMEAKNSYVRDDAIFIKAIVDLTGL

binding, no binding:
caspase-1 (endogenous) (from UniProt P29466 1-404), B1, B2

The molecules below were run against T2, Casp2(C320A)-Myc (UniProt P42575) (assay: co-IP; Casp2(C320A)-Myc and Flag-tagged TRAF1-7 co-expressed in HEK293T for 48 h; anti-Myc agarose IP, immunoblot).
T2 sequence: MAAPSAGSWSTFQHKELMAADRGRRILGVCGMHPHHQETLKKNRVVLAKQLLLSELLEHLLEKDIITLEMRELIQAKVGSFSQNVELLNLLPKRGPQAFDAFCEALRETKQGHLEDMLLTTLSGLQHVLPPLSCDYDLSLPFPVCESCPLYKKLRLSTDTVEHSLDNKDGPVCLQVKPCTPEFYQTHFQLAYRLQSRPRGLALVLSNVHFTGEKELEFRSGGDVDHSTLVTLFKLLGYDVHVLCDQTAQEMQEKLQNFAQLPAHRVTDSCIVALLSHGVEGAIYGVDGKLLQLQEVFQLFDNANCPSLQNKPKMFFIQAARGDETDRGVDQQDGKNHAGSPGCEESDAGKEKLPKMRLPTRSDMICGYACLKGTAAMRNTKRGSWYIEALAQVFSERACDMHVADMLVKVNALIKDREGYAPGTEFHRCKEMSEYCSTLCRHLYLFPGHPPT

binding, no binding:
Flag-TRAF5 (from UniProt O00463 1-557), B3, B4

From article PMC6043850
